Experimental data taken from the supplement of paper PMC10849652.
The other results are listed elsewhere or left out.

The chains behind the UniProt entries cited, without tags or fusion partners. Where a name states a change or a piece, a line headed by the entry shows the natural chain unless it says otherwise.
UniProt Q15637: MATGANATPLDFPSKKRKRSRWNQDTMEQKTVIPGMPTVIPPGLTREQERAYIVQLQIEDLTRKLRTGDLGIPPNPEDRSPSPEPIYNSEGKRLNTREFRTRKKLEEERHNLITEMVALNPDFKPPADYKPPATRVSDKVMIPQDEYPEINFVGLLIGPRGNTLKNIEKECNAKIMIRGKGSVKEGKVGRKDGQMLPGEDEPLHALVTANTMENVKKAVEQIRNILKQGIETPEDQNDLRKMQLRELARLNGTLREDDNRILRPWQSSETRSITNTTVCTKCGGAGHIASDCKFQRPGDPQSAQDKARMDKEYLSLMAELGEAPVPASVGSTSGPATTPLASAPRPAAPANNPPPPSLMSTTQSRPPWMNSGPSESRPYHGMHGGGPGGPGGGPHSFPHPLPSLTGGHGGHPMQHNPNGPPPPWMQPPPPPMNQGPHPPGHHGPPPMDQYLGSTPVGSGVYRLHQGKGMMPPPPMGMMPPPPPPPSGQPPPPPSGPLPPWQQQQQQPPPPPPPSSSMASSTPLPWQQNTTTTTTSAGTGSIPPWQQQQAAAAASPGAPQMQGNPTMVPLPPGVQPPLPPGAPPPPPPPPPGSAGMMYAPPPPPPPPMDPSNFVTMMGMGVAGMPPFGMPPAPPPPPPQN
UniProt Q9BXP2: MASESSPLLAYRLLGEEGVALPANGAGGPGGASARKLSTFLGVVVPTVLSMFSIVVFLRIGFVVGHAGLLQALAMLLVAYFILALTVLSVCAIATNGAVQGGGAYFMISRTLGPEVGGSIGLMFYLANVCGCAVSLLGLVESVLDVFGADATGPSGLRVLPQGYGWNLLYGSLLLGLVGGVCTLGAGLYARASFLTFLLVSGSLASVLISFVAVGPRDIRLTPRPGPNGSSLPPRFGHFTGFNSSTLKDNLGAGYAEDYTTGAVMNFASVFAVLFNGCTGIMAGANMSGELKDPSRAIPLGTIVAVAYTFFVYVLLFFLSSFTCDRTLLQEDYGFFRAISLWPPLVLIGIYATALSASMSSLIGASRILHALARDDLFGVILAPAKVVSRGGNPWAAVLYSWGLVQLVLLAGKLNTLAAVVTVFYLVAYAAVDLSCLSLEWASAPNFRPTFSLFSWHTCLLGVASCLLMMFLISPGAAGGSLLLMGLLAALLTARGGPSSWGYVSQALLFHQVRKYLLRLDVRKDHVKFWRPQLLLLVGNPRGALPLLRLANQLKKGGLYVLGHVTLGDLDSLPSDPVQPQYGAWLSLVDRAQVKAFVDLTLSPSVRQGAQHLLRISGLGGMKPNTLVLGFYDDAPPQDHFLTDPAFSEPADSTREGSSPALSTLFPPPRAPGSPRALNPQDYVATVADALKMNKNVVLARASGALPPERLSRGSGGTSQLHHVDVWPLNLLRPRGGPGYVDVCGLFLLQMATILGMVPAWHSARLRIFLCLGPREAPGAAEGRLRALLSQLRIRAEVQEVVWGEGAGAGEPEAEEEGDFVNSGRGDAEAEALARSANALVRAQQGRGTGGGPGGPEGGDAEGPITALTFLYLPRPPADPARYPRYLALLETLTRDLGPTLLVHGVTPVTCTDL
UniProt Q9BWJ5: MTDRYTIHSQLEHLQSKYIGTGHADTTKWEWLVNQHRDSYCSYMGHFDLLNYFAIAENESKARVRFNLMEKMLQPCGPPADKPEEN
UniProt Q9H173: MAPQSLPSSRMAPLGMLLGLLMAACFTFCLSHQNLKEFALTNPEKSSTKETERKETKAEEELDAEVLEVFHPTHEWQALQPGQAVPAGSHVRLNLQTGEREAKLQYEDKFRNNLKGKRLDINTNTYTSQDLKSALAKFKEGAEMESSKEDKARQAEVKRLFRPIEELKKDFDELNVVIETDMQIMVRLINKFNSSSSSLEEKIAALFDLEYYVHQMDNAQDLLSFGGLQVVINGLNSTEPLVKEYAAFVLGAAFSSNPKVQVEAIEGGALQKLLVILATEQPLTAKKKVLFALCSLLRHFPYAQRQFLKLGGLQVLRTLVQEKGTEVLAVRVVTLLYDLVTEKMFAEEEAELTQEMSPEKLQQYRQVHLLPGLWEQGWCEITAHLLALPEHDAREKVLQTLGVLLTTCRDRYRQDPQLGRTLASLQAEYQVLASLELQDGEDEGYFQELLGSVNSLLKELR
UniProt Q8IW75: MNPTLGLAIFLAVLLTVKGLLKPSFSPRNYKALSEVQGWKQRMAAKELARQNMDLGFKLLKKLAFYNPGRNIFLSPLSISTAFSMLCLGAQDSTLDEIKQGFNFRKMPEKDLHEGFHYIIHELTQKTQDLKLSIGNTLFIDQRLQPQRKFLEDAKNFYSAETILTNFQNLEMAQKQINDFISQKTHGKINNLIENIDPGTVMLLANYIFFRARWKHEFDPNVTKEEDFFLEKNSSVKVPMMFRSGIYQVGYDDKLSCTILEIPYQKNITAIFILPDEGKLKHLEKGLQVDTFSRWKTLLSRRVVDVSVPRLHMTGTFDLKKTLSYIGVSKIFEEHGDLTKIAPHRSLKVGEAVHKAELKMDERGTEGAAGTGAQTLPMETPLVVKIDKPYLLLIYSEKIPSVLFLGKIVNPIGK
UniProt Q9UHD8: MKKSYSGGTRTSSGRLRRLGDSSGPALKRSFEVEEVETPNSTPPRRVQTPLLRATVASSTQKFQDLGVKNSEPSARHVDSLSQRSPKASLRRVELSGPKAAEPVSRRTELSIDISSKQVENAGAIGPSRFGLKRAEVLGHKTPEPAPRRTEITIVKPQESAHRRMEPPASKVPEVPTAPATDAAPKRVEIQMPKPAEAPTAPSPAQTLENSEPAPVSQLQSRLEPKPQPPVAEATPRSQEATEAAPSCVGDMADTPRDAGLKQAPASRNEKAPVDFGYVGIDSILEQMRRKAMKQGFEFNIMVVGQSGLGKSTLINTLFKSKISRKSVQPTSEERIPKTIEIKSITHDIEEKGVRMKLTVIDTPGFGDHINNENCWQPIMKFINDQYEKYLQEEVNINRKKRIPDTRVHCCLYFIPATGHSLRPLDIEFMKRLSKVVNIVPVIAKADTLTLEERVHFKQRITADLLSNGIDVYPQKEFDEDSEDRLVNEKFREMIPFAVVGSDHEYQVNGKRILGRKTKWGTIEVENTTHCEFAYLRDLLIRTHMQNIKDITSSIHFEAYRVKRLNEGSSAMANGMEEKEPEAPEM
UniProt O60779: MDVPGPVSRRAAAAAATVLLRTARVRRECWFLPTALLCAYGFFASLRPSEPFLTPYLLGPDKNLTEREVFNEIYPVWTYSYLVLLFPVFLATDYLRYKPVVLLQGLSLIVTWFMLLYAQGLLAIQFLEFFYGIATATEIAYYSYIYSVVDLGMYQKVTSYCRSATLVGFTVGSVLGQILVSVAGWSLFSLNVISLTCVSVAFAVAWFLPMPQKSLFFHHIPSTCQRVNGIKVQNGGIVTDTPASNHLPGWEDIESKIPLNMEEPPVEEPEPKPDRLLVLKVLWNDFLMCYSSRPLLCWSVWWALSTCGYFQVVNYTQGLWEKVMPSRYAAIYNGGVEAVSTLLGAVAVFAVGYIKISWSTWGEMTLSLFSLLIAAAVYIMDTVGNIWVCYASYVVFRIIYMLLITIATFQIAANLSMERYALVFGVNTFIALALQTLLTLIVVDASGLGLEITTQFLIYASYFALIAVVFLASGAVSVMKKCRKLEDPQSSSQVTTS
UniProt Q9UQ13: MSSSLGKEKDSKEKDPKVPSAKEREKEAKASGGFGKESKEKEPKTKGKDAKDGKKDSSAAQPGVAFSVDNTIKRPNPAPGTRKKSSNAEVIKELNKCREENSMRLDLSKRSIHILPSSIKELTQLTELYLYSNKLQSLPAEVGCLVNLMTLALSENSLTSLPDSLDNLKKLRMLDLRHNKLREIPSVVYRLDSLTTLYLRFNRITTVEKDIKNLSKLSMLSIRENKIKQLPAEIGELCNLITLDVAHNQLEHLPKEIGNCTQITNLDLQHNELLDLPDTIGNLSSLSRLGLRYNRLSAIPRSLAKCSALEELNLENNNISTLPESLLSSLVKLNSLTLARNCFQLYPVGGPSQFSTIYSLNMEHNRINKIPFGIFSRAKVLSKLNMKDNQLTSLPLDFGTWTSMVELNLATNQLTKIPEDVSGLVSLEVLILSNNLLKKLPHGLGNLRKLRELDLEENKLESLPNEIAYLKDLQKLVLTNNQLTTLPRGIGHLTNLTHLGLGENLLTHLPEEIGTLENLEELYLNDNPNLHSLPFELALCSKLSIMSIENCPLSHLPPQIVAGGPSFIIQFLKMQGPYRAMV
UniProt O43255: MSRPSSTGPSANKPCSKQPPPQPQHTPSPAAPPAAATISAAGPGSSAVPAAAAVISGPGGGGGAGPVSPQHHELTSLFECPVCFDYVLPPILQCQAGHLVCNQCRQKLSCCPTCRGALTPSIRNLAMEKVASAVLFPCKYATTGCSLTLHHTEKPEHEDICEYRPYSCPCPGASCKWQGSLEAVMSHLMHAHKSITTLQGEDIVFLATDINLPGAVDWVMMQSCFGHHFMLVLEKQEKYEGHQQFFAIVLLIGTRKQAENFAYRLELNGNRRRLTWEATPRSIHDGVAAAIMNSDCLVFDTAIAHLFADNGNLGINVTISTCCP
UniProt Q8NC51: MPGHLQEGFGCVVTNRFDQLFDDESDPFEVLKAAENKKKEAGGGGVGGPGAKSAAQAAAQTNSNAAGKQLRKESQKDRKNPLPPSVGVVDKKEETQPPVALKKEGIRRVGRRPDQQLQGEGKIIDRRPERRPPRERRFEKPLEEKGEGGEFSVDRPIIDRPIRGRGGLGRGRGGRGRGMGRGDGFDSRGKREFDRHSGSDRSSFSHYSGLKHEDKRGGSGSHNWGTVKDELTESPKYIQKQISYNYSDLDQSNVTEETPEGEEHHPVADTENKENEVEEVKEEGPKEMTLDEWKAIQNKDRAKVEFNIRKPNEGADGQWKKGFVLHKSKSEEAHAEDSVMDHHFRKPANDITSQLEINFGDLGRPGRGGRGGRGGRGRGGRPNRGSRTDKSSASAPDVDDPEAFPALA

Experiments:
Assay in all cases: log2 fold change, soluble protein after heating vs DMSO (PISA); higher = thermal stabilisation; K562 lysate, 10 uM; active = over 0.2 and 3.5 SD of the protein, either way, in both replicates (recomputed)
[1] = compound: C1=CC=C(C=C1)[C@H](COC2=CC3=C(C=C2)NC(=O)N3)NC(=O)C4=CC=CN(C4=O)CC5=CC(=C(C=C5)F)F
Summary of the method: (§1)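 Following dounce homogenisation of K562 pellets in PBS pH 7.4 with 1 mM MgCl2, crude extract at 1 mg/mL protein was incubated for 30 min with 10 μM compound. Aliquots were then heated for 3 min over 48°C-58°C and pooled, NP-40 was added to 0.5% at 4°C, and soluble protein was recovered as the supernatant at 21,000xg for 90 min. Channel-sum-equalised TMTpro 16plex LC-MS/MS quantified this protein. Each value, from duplicates, is a log-two fold change in thermal stability relative to solvent controls.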

[2] = compound: CC1=C(SC2=C1C(=N[C@H](C3=NN=C(N32)C)CC(=O)N)C4=CC=C(C=C4)Cl)C
Summary of the method: as §1

[3] = compound: CC1=C2C(=CC=C1)N=C(N(C2=O)C3=CC=CC=C3C)CN4C=NC5=C(N=CN=C54)N
Summary of the method: as §1

[4] = compound: Cc1sc2c(c1C)C(c1ccc(Cl)cc1)=N[C@@H](CC(=O)OC(C)(C)C)c1nnc(C)n1-2
Summary of the method: as §1

[5] = compound: c1ccc([C@@H]2C[C@H]2NC2CCNCC2)cc1
Summary of the method: as §1

Measured: log2 fold change

SF1 isoform 5 (UniProt Q15637)
inactive: [1] 0.048 | [2] -0.005 | [3] -0.006 | [4] 0.023 | [5] -0.008

SLC12A9 (UniProt Q9BXP2)
inactive: [1] -0.016 | [2] -0.022 | [3] 0.041 | [4] -0.042 | [5] -0.008

SF3B5 (UniProt Q9BWJ5)
inactive: [1] 0.024 | [2] -0.034 | [3] 0.006 | [4] -0.031 | [5] 0.138

SIL1 (UniProt Q9H173)
inactive: [1] 0.06 | [2] 0.079 | [3] -0.004 | [4] -0.001 | [5] -0.043

SERPINA12 (UniProt Q8IW75)
inactive: [1] -0.166 | [2] 0.233 | [4] -0.083

SEPTIN9 (UniProt Q9UHD8)
inactive: [1] -0.007 | [2] 0.037 | [3] -0.013 | [4] -0.007 | [5] -0.099

SLC19A2 (UniProt O60779)
inactive: [1] -0.147 | [2] 0.094 | [4] -0.01 | [5] -0.001

SHOC2 (UniProt Q9UQ13)
inactive: [1] 0.006 | [2] 0.02 | [3] -0.019 | [4] -0.048 | [5] -0.082

SIAH2 (UniProt O43255)
inactive: [1] 0.065 | [2] 0.162 | [3] -0.015 | [5] 0.026

Two neighbouring entries already listed:
SEPTIN9 (UniProt Q9UHD8)
inactive: [1] -0.007 | [2] 0.037 | [3] -0.013 | [4] -0.007 | [5] -0.099

SLC19A2 (UniProt O60779)
inactive: [1] -0.147 | [2] 0.094 | [4] -0.01 | [5] -0.001

Additional results follow.

SERBP1 isoform 3 (UniProt Q8NC51)
inactive: [1] 0.227 | [2] -0.028 | [4] 0.07
